This note sets out measurements from patent US20130225669A1 (priority 2012, published 2013).

A short description of this series: Three-point bending tests of genipin-treated bone. More on the design: species or system bovine. Conditions: for bending modulus / maximum flexural strength: one week.

Take `COC(=O)C1=CO[C@@H](O)C2C(CO)=CC[C@H]12` (stereo in doubt) [genipin, methyl (1R,2R,6S)-2-hydroxy-9-(hydroxymethyl)-3-oxabicyclo [4.3.0]nona-4,8-diene-5-carboxylate]: the “bone mechanical outcomes versus PBS” value (0.63% genipin in PBS, 1 week at 25° C., N=7-9) was “No statistically significant differences”. Where the note is “2% genipin in 90% ethanol, 1 week at 25° C., N=7-9”, the “bone mechanical outcomes versus 90% ethanol alone” value is reported as “No statistically significant differences”. For the setting “15 mL/0.625% genipin in PBS”, this compound displayed a bending modulus of 19.2±2.2 GPa and a maximum flexural strength of 293.0±20.3 MPa. Moreover, where the note is “25 mL/0.625% genipin in PBS”, the bending modulus is given as 26.7±2.2 GPa and the maximum flexural strength was 346.9±42.3 MPa.
